PubChem BioAssay AID1794844 (National Center for Advancing Translational Sciences (NCATS), 2023)
The campaign covered roughly 2,800 compounds. Fewer than 10 were called active. Not shown: some 7% with an inconclusive outcome. Calls come from the whole dose curve; as a rule, active = well fitted inhibition curve with a large enough effect; inconclusive = small, poorly fitted or top-dose-only effect; inactive = no such curve, though single readings can be large or run the other way. The list shows a part of the results.

The chains behind the UniProt entries cited, without tags or fusion partners. Where a name states a change or a piece, a line headed by the entry shows the natural chain unless it says otherwise.
UniProt C7C422: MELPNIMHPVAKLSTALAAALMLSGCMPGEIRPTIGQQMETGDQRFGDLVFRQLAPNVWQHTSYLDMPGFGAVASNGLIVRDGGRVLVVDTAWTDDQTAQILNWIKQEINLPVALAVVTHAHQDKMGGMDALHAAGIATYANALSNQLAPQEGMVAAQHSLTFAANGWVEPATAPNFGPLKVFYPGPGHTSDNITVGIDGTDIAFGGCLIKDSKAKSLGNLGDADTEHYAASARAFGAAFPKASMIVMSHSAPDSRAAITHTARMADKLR

target: Metallo-beta-lactamase type 2 (Klebsiella pneumoniae) (UniProt C7C422); experiment: qHTS to identify inhibitors of the New Delhi Metallo-beta-lactamase (NDM): Nitrocefin screen against the machine-based learning selections.; note: % of control where 0% means no effect; conditions: NDM-1 enzyme, nitrocefin hydrolysis, absorbance 485 nm; activity, negative = inhibition: at the top concentration
Outline: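 Hydrolysis by 2 nM NDM-1 was followed by absorbance after >30 min compound preincubation in HEPES pH 7.0 buffer with 1 uM Zn2SO4. For nitrocefin (16.7 uM, 15 min, 485 nm) and meropenem (50 uM, 30 min, 300 nm), each substrate ran on separate plates.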

activity, negative = inhibition, inactive:
C[C@@]1(O)CCN(C(=O)c2cc(C(F)(F)F)ccc2Cl)C[C@@H]1O -0.333%
CN(Cc1ccccc1)Cc1cc(C(=O)N(C)Cc2ccsc2)no1 0.722%
COC[C@H]1CCCN1Cc1nc(C2(O)CCN(C)CC2)cs1 -1.63% [at 57.5 µM]
c1ccc(CCN2CCNc3cc(Nc4ccc(N5CCOCC5)cc4)ncc3C2)cc1 6.99% [at 57.5 µM]
COc1ccc(F)c(CN2CCCC(O)(CN(C)Cc3cc(C)on3)C2=O)c1 (stereo not drawn) -7.5%
Cc1cc(C)n(-c2ccc(NC(=O)C3CCN(Cc4nnc(C)o4)CC3)cc2)n1 -1.31%
COc1ccc(C(=O)N2CCCC(c3nccn3CC3CCC3)C2)c(OC)n1 (stereo not drawn) -6.83%
CC(C)NC(=O)CN1CCN(c2nccc(N3CCC(O)CC3)n2)CC1 -11%
CC(C)CN=C1S[C@H]2[C@H]([C@@H](O)[C@H](O)C[C@@H]2C(N)=O)N1Cc1ccc(F)cc1 0.0925% [at 57.5 µM]
CC(=O)NC(CO)C(=O)N1CCC(O)(c2ccc(C)cn2)CC1 (stereo not drawn) -8.69%
Cc1ccc(N2CCN(C(=O)C3CCCN(c4cnc5nccnc5c4)C3)CC2)cc1 (stereo not drawn) 12.1%
Cc1ccc(C2(O)CCN(C(=O)c3cccc(-c4ncc[nH]4)c3)CC2)nc1 5.53%
Cc1cnccc1N1CCCN(C(=O)c2cccc(C3CCCNC3)c2)CC1 (stereo not drawn) -5.47%
Cc1ccccc1Oc1ncccc1CNC(=O)CCn1cnnc1 7.19%
Cc1cc(CNC(=O)c2cc(-c3ccco3)nc3c(Cl)cccc23)no1 -8.97%
O=C(O)C1(Oc2ccc3ccccc3c2)CCN(Cc2ccsc2)CC1 0.586%
Cc1nc2cc(N3CCCC(C(=O)NCCN4CCCCCC4)C3)cnc2nc1C (stereo not drawn) -6%
COC(=O)CCNC(=O)C1c2ccccc2C(=O)N(Cc2ccco2)C12CCCCC2 (stereo not drawn) -0.629%
CCCN[C@H]1C[C@@H](Cc2cc(COc3ccccc3)on2)C1(C)C -0.0387% [at 57.5 µM]
O=C(CC[C@@H]1CNC(=O)[C@@H]2C[C@H](NC(=O)Nc3cccc(Cl)c3)CN12)NCc1cccnc1 -15.3%
COCc1cc(C[C@@H]2C[C@H](NC3CCN(C(C)=O)CC3)C2(C)C)no1 3.74% [at 57.5 µM]
CC(C)C[C@@H](NC(=O)C1=C[C@@H](NC(=O)CC(C)(C)C)[C@@H](O)[C@H](O)C1)C(N)=O -0.399% [at 57.5 µM]
Cc1nc(N2CCCCC2)ncc1C(=O)NC1CCOC2(CCOCC2)C1 (stereo not drawn) -10.2%
COc1ccc2[nH]c(C[C@@H]3C[C@@H](C(C)C)[C@H](CNCc4ccccc4O)C=C3C)nc2n1 0.657% [at 57.5 µM]
C#CCNC(=O)[C@H]1O[C@H](CCN2CCOCC2)CC[C@@H]1O -0.0814% [at 57.5 µM]
O=C(NC[C@H]1OC[C@@H](N(Cc2ccccc2F)Cc2ccccc2F)[C@@H]1O)c1ccccc1 6.97%
O=C(Cc1c[nH]c2ncc(-c3cccnc3)cc12)Nc1ccc(C(F)(F)F)cc1 6.66% [at 57.5 µM]
CNC(=O)[C@@H]1C[C@H](n2cc(CNC(=O)Nc3ccc(C)c(Cl)c3)nn2)CN1 -11.5%
CN1C[C@H](C(=O)Nc2ccccc2)C[C@H]1c1cccc(C(F)(F)F)c1 -10.2% [at 57.5 µM]
COc1ccc(C(=O)N[C@@H]2CN(C(=O)Nc3ccc(OC(F)(F)F)cc3)CCC[C@H]2O)cc1 0.345%
CS(=O)(=O)N1CCCCCNC(=O)CC1c1ccccc1 (stereo not drawn) 0.042%
C[C@]1(O)CCN(C(=O)c2ccc3c(c2)CCCC3)C[C@@H]1O -8.47%
Cn1nc(C2CCN(C(=O)c3nccc4ccccc34)CC2)c2c1CCOC2 0.202%
COCCNC(=O)CC[C@]12CC[C@](C)(O)C[C@H]1C(C)(C)C[C@@H]2NC(=O)CC(C)(C)C -2.33% [at 57.5 µM]
COC(=O)CO[C@@H]1CO[C@H]2[C@@H]1OC[C@@H]2NC(=O)Nc1cccc(C(F)(F)F)c1 -2.32% [at 57.5 µM]
O=c1c2nc(NCc3ccccc3)ccc2ncn1Cc1ccccn1 -11.6% [at 57.5 µM]
COC(=O)[C@H](NC(=O)[C@@H]1C[C@@H](NC(=O)Nc2cccc(F)c2)CCN1C(=O)CCC(=O)O)C(C)C 0.266%
COc1ccc(CNC(=O)[C@H]2O[C@H](CCN3CCN(c4ccccc4OC)CC3)CC[C@@H]2O)cc1 -4.67%
OCCC1CCN(c2ccc(-c3nc(CCCc4ccccc4)no3)cn2)CC1 22.1%
O=C(NCCc1ccccn1)c1ccnc(-c2nnc3ccc(Nc4ccccc4)nn23)c1 3.43% [at 57.5 µM]
CC(C)NC(=O)N1CCC(O)(c2csc(CN3CC[C@@H](O)C3)n2)CC1 -4.53% [at 57.5 µM]
CC(C)N1CCOC[C@H]1c1ncc(-c2ccc(F)cc2)[nH]1 -3.53% [at 76.7 µM]
CC(=O)Nc1ccc(C2(C(=O)NCc3cccc(F)c3)CCC2)cc1 -0.945%
Cc1ccccc1-c1cnc2[nH]cc(CC(=O)Nc3ccccc3)c2c1 4.8% [at 57.5 µM]
CC(=O)Nc1ccc(CN2CCC(N3CCCCCC3=O)CC2)cc1 -11.6%
Cc1cc(-c2cnc3[nH]cc(CC(N)=O)c3c2)ccn1 22.8% [at 76.7 µM]
O=C(Cc1ccc(Cl)cc1)N[C@H]1[C@H](O)[C@H](O)C[C@@H]1c1cccnc1 -0.774% [at 57.5 µM]
CCn1cnnc1CC1CCCN(S(=O)(=O)c2ccccc2C)C1 (stereo not drawn) 0.125%
CC1(CCCCc2ccccc2)COc2ccc(C(=O)NC3CCC(O)CC3)cc2N1 (stereo not drawn) 2.52% [at 57.5 µM]
OC(c1cccc(C(F)(F)F)c1)c1nc(Nc2ccc3c(c2)OCO3)n[nH]1 (stereo not drawn) -3.57% [at 57.5 µM]
CC(C)C(=O)N1CCC(Oc2cccnc2)C1 (stereo not drawn) -4.49%
O=C(c1ccccn1)N1CCCC2(C1)Nc1cccnc1NC2=NC1CCCC1 (stereo not drawn) -5.4%
O=C(C1CCCC1)N1CCOC[C@H](Oc2ccc(C(F)(F)F)cc2)C1 5.8% [at 57.5 µM]
CN(CC1CCOCC1)S(=O)(=O)Cc1cccc(Cl)c1 1.33%
CO[C@@H]1COCC[C@H]1NC(=O)CCCn1nnc(-c2ccc(F)cc2)n1 0.749%
CC(C)CC(=O)N1CCc2ccc(S(=O)(=O)N(C)Cc3nccs3)cc2C1 -2.14%
O=C(Cc1c[nH]c2ncc(-c3ccc(F)cc3)cc12)NCc1cccnc1 20.7% [at 57.5 µM]
O=C(c1cccc(F)c1)N1CCC(Cc2nc(C3CCOCC3)no2)CC1 -4.17%
O=C(O)c1ccnc(-c2ccnc(NCC(O)c3ccccc3Cl)n2)c1 (stereo not drawn) -1.81%
Cc1noc2c(-c3cccc(CO)c3)cc(-c3ccccc3)nc12 16.5% [at 57.5 µM]
COc1ccc(C(=O)N[C@@H]2CN(C(=O)Nc3ccccc3)CCC[C@H]2O)cc1 -1.38% [at 57.5 µM]
c1ccc(-c2ccc3ncc(Nc4ccccn4)n3n2)cc1 -8.06% [at 76.7 µM]
Clc1cccc(Nc2cc3c(cn2)CN(Cc2cccnc2)CCN3)c1 8.98% [at 57.5 µM]

An excerpt from above in order of number of heavy atoms, largest number first:
activity, negative = inhibition, inactive:
Cc1ccc(N2CCN(C(=O)C3CCCN(c4cnc5nccnc5c4)C3)CC2)cc1 (stereo not drawn) 12.1%
Cc1cnccc1N1CCCN(C(=O)c2cccc(C3CCCNC3)c2)CC1 (stereo not drawn) -5.47%
O=C(c1cccc(F)c1)N1CCC(Cc2nc(C3CCOCC3)no2)CC1 -4.17%
O=C(C1CCCC1)N1CCOC[C@H](Oc2ccc(C(F)(F)F)cc2)C1 5.8% [at 57.5 µM]
O=C(Cc1ccc(Cl)cc1)N[C@H]1[C@H](O)[C@H](O)C[C@@H]1c1cccnc1 -0.774% [at 57.5 µM]
